Values from PubChem BioAssay AID1259405 (NCATS, 2018).
The whole screen tested about 50,000 reagents; shown is an unselected part. About 4,000 of all reagents (8%) were called active. 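Mouse siRNA library applied to hamster cells; one well for each siRNA.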 Entries without a mark were called inactive. Reagents against one gene are numbered here.

Aim: 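Knock-downs that lift recombinant protein yield in hamster ovary cells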 (primary screen)
Cells: Chinese hamster CHO-K1 ovary cells with stable secreted eGFP expression
Reagents: single siRNA against mouse genes, 0.8 pmol siRNA per well (2 µl of 400 nM stock)
Duration: 3 days
Detection: 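Percent of the per-plate non-targeting control median for intracellular GFP per well by laser scanning cytometry and for cell viability by ATP luminescence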
Scale: GFP, % of control: higher = more GFP per well, higher productivity; viability (ATP), % of control: higher = more viable cells (more ATP)
Rule for the call: 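a knock-down is called active if GFP reaches 120% or more of non-targeting control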

Mvd #1 scored GFP, % of control 55.2; viability (ATP), % of control 74.4.
Knock-down of Mvd #2 came out at: GFP, % of control 76.3; viability (ATP), % of control 86.3.
Silencing of Mvd #3 resulted in: GFP, % of control 34.5; viability (ATP), % of control 66.1.
Antxrl #1 scored GFP, % of control 59.7; viability (ATP), % of control 32.8.
For Antxrl #2 the deposit lists GFP, % of control 79.5; viability (ATP), % of control 62.3.
Antxrl #3 showed GFP, % of control 88.1; viability (ATP), % of control 80.4.
Hpcal1 #1 showed GFP, % of control 66.9; viability (ATP), % of control 64.6.
After knock-down of Hpcal1 #2, the screen gave GFP, % of control 57.2; viability (ATP), % of control 68.3.
After knock-down of Hpcal1 #3 the results were GFP, % of control 79.6; viability (ATP), % of control 79.2.
Depletion of Hsp90ab1 #1 gave: GFP, % of control 55; viability (ATP), % of control 78.3.
Hsp90ab1 #2 showed GFP, % of control 85.4; viability (ATP), % of control 73.3.
Hsp90ab1 #3 showed GFP, % of control 71.6; viability (ATP), % of control 85.
After knock-down of Gpr135 #1 the results were GFP, % of control 156 (active); viability (ATP), % of control 104.
With knock-down of Gpr135 #2 the results were GFP, % of control 58.6; viability (ATP), % of control 59.8.
Against Gpr135 #3 the deposit lists GFP, % of control 107; viability (ATP), % of control 63.8.
After knock-down of Or4a67 #1, the record shows GFP, % of control 82.3; viability (ATP), % of control 51.9.
After knock-down of Or4a67 #2, the screen gave GFP, % of control 24.5; viability (ATP), % of control 47.
For Or4a67 #3, the values are GFP, % of control 103; viability (ATP), % of control 92.1.
After knock-down of Megf6 #1, the record shows GFP, % of control 87.2; viability (ATP), % of control 92.4.
Megf6 #2 gave GFP, % of control 135 (active); viability (ATP), % of control 62.6.
Megf6 #3 showed GFP, % of control 60.2; viability (ATP), % of control 55.4.
Eef2k gave GFP, % of control 93.4; viability (ATP), % of control 71.8.
Silencing of Armc7 #1 gave: GFP, % of control 62.1; viability (ATP), % of control 65.9.
Armc7 #2 scored GFP, % of control 86.7; viability (ATP), % of control 84.8.
For Armc7 #3 the deposit lists GFP, % of control 126 (active); viability (ATP), % of control 94.8.
For Brcc3dc #1, the values are GFP, % of control 86.6; viability (ATP), % of control 92.8.
For Brcc3dc #2, the entry reads GFP, % of control 43.1; viability (ATP), % of control 70.8.
Knock-down of Brcc3dc #3 gave: GFP, % of control 120; viability (ATP), % of control 93.7.
Cacng6 #1 scored GFP, % of control 78.3; viability (ATP), % of control 72.5.
Cacng6 #2 showed GFP, % of control 71.2; viability (ATP), % of control 63.2.
For Cacng6 #3, the values are GFP, % of control 184 (active); viability (ATP), % of control 133.
Depletion of 4930579K19Rik #1 gave: GFP, % of control 109; viability (ATP), % of control 61.1.
4930579K19Rik #2 gave GFP, % of control 49.8; viability (ATP), % of control 37.9.
4930579K19Rik #3 showed GFP, % of control 77.5; viability (ATP), % of control 106.
For Hmgb4 #1, the values are GFP, % of control 77.7; viability (ATP), % of control 104.
With knock-down of Hmgb4 #2, the screen gave GFP, % of control 57.4; viability (ATP), % of control 93.
Hmgb4 #3 gave GFP, % of control 64.3; viability (ATP), % of control 64.
Triqk #1 showed GFP, % of control 72.1; viability (ATP), % of control 64.6.
Triqk #2 scored GFP, % of control 76.1; viability (ATP), % of control 101.
With knock-down of Triqk #3 the results were GFP, % of control 78.8; viability (ATP), % of control 89.4.

6 successive records from above, for reference:
Cacng6 #1 → GFP, % of control = 78.3; viability (ATP), % of control = 72.5
Cacng6 #2 → GFP, % of control = 71.2; viability (ATP), % of control = 63.2
Cacng6 #3 → GFP, % of control = 184 (active); viability (ATP), % of control = 133
4930579K19Rik #1 → GFP, % of control = 109; viability (ATP), % of control = 61.1
4930579K19Rik #2 → GFP, % of control = 49.8; viability (ATP), % of control = 37.9
4930579K19Rik #3 → GFP, % of control = 77.5; viability (ATP), % of control = 106
